In article PMC11361582:
Results are given in words; binding and its absence hold for the method and conditions named. Binding seen in cells or lysates may run through a third protein. Binding can be weak; no strength is given. Sequences can lack the tags named with a protein.

What was measured:
Test in all cases: pull-down; GST-tagged bait and N-terminally 6xHis-tagged prey co-expressed in one E. coli BL21 DE3 strain; lysate (0.1 x PBS, 50 mM EDTA, 1 mM DTT, about 1% Triton X-100; ATP and MgSO4 added, 37°C 10 min) bound to glutathione agarose 15 min at room temperature; washed 8 times with 50 mM Tris-Cl, 300 mM NaCl, 50 mM EDTA, pH 7.5 and twice with PBS; bound beads analysed by immunoblot with anti-GST and anti-His antibodies
[1] = biological target: GST-tagged BbDUF490 Segment 2 (TamB aa 1222-1334) (Borreliella burgdorferi B31)
[2] = biological target: GST-tagged B. burgdorferi TamB DUF490 domain (aa 1117-1443) (Borreliella burgdorferi B31)
[3] = biological target: GST-tagged BbDUF490 Segment 3 (TamB aa 1335-1443) (Borreliella burgdorferi B31)
[4] = biological target: GST-tagged BbDUF490 Segment 1 (TamB aa 1117-1221) (Borreliella burgdorferi B31)

binding [1]: binds
binding [2]: binds
binding [3]: binds
binding [4]: binds
B1: 6xHis-tagged B. burgdorferi BamB (protein, UniProt O51059 26-349)
chain: SSESIFSQLGNLQKIKHEYNILGSSSPRGISLVGETLYIAAMHLFKKENGKIEKIDLSNSYEFINDIVNISGKTYLLAQNKEEELEVCELNGKDWTLKFKKPLKAYKFLKSVGRDGVKEAYILAIDKNNREKIFDLQGSDKTPPQATENDKFYQISNEENLITGNSLKIWQMNNNTYTNIDYQQAKEIMPIIKTSIRGSSEVLVMTGGYNNLDTKFKVYSNTNNYTTPIFIQDEVGEFSSYFAREFNDAILIGSNNGFAEFTKNKEGIFALRAPSKSVEPGAYNGSQLSKTGLNDIIPVSNNTIYILTQGKGLWKLENRKLTKE
